Drawing on publication PMC12003641, this text covers binding for one substance.

Protein sequences, listed by entry. Tags and fused reporters are not part of them.
UniProt P40337: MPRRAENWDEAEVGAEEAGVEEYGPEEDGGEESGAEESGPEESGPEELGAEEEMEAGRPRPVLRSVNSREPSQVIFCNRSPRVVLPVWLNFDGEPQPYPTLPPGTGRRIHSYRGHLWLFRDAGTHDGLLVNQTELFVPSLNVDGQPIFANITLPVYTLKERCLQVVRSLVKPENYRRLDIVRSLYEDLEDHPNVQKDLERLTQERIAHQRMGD

Results are given in words; binding and its absence hold for the method and conditions named. Binding seen in cells or lysates may run through a third protein. Some entries that bind do so weakly or less than the wild type. Tags and fused reporters may be left off the sequences shown.

This test concerns the target T1, Flag-tagged pRb (UniProt P06400).
T1 sequence: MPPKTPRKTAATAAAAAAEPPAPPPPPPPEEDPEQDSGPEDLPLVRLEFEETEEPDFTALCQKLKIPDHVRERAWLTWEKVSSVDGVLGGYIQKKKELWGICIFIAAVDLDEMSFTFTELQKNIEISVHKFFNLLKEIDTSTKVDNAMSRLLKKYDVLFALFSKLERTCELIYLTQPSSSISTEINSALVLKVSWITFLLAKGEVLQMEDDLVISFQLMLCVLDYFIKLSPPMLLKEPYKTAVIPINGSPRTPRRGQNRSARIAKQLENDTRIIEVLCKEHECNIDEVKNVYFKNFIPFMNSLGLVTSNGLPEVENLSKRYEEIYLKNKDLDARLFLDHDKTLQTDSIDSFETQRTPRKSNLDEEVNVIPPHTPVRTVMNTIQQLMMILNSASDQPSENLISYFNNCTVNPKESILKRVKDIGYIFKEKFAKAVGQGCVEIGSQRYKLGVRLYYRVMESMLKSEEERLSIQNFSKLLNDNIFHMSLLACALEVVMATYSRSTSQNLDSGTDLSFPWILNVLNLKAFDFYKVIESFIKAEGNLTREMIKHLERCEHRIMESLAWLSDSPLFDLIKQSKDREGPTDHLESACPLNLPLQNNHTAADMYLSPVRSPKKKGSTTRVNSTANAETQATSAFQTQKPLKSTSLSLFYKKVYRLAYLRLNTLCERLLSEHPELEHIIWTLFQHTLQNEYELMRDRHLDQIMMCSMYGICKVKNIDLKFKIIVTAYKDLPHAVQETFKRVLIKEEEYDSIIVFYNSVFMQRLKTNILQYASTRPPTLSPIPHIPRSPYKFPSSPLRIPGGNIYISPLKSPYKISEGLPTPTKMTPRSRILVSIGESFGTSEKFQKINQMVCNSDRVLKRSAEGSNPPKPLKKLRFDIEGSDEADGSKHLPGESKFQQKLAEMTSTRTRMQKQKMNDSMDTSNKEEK
The experiment in a line: co-IP; HEK293A transfected with Flag-pRb and HA-VHL, with or without 10 µM MG132 for 4 h; immunoprecipitation of Flag-pRb; mild lysis buffer (10 mM Tris pH 7.5, 100 mM NaCl, 10 mM EDTA, 50 mM NaF, 1% NP-40).

With “HA-tagged VHL (transient, HA-VHL wt-pBabe-puro) (from UniProt P40337 1-213)”, the binding result is recorded as “binds”.
